{
  "source": "paper PMC6029430",
  "binders": {"B1": {"name": "bZIP63 (protein, UniProt B9DGI8 1-314)", "chain": "MEKVFSDEEISGNHHWSVNGMTSLNRSASEWAFNRFIQESSAAADDGESTTACGVSVSSPPNVPVDSEEYRAFLKSKLNLACAAVAMKRGTFIKPQDTSGRSDNGGANESEQASLASSKATPMMSSAITSGSELSGDEEEADGETNMNPTNVKRVKRMLSNRESARRSRRRKQAHLSELETQVSQLRVENSKLMKGLTDVTQTFNDASVENRVLKANIETLRAKVKMAEETVKRLTGFNPMFHNMPQIVSTVSLPSETSNSPDTTSSQVTTPEIISSGNKGKALIGCKMNRTASMRRVESLEHLQKRIRSVGDQ"}},
  "target": "bZIP63 (Arabidopsis) (UniProt B9DGI8)",
  "assay": "split reporter; BiFC with YFP halves, co-bombardment of N. benthamiana leaves, confocal imaging 24-48 h after bombardment, DAPI counterstain",
  "note": "These are yes or no findings as the source states them, for the method shown. In cells and extracts the contact can be indirect. Some entries that bind do so weakly or less than the wild type.",
  "data": [
    {"binder": "B1", "values": [
      {"measurement": "binding", "result": "binds"}
    ]}
  ]
}
